Measured values as given in the M2OR odorant receptor database.
This is a selection; strong and weak results do not stand in their true shares. The calls were merged from several studies; some rest on single wells. The list shows a part of the results. This is one part of the list.

Columns and labels:
Details in all cases: stereoisomer not certain
OR2W1 = tested on: T1, OR2W1
T1 sequence (whole entry): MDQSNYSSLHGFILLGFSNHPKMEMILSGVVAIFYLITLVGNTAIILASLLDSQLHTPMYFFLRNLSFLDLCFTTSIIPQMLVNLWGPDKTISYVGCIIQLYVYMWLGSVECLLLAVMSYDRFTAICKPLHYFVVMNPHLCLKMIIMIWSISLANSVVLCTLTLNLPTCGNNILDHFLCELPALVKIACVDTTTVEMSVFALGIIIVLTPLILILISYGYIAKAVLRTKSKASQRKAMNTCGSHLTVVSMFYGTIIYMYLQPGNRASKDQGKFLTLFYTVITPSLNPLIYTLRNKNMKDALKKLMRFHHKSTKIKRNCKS
Summary of the method: (§1)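 Assay methods differ from source to source, frequently being transient luciferase assays in mammalian cell lines. For each receptor–molecule pair, the label responsive (active) applies when the original authors judged the measured signal statistically different from baseline, and non-responsive (inactive) applies otherwise.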

OR2W3 = tested on: T2, OR2W3
T2 sequence (whole entry): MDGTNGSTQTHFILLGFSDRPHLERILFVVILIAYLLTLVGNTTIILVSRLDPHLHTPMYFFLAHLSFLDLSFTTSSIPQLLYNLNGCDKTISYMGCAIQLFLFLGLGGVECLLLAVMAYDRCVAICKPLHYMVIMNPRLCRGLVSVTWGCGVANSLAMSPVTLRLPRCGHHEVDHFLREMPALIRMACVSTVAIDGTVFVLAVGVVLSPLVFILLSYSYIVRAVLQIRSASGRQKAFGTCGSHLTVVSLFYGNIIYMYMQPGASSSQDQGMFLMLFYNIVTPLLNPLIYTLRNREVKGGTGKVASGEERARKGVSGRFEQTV
Summary of the method: as §1

OR2W5P (Homo sapiens) = biological target: T3, OR2W5P (Homo sapiens) (UniProt A6NFC9)
T3 sequence (whole entry): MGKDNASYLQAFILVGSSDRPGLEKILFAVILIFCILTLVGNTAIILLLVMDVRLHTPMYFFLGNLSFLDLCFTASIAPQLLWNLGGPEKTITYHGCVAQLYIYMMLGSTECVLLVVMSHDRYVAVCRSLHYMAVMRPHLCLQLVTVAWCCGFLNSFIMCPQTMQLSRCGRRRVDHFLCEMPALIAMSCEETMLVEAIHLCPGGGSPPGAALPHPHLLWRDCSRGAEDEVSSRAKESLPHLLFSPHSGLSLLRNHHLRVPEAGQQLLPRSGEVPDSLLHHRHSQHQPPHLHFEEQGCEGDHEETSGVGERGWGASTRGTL
Summary of the method: as §1

OR2Y1 = tested on: T4, OR2Y1
T4 sequence (whole entry): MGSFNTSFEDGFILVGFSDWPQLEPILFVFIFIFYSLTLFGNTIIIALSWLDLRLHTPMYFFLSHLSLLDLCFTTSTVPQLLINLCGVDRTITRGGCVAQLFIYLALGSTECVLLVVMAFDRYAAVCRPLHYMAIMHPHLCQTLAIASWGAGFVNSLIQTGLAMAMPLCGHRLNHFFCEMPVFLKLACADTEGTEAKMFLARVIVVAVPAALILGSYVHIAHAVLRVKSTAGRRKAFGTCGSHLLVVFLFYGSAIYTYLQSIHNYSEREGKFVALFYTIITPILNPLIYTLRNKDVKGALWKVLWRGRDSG
Summary of the method: as §1

OR2Z1 (Homo sapiens) = biological target: T5, OR2Z1 (Homo sapiens) (UniProt Q8NG97)
T5 sequence (whole entry): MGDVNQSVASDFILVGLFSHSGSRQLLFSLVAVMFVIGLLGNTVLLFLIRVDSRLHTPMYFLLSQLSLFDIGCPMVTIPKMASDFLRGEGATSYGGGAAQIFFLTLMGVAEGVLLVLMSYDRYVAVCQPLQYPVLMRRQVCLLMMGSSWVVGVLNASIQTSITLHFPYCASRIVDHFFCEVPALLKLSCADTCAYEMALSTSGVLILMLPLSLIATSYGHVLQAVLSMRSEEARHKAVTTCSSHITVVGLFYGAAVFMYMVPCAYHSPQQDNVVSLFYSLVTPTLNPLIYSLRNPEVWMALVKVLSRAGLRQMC
Summary of the method: as §1

OR3A1 (Homo sapiens) = biological target: T6, OR3A1 (Homo sapiens) (UniProt P47881)
T6 sequence (whole entry): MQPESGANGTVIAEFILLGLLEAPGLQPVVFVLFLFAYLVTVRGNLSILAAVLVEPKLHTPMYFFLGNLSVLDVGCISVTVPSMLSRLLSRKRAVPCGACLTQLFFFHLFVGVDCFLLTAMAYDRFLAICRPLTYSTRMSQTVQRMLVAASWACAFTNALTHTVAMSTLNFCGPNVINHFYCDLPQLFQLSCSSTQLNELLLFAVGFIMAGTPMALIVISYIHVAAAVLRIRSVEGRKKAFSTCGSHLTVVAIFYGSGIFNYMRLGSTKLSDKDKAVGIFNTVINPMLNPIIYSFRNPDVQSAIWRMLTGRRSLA
Summary of the method: as §1

OR3A2 (Homo sapiens) = biological target: T7, OR3A2 (Homo sapiens) (UniProt P47893)
T7 sequence (whole entry): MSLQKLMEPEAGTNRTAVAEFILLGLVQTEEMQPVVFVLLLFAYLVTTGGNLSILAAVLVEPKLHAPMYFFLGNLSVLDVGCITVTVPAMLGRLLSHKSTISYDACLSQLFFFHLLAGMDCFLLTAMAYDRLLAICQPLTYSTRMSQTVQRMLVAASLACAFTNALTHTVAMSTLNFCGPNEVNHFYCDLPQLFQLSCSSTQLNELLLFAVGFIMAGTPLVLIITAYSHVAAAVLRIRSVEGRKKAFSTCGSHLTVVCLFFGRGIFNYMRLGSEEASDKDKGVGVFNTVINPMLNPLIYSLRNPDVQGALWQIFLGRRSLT
Summary of the method: as §1

OR4A16 (Homo sapiens) = biological target: T8, OR4A16 (Homo sapiens) (UniProt Q8NH70)
T8 sequence (whole entry): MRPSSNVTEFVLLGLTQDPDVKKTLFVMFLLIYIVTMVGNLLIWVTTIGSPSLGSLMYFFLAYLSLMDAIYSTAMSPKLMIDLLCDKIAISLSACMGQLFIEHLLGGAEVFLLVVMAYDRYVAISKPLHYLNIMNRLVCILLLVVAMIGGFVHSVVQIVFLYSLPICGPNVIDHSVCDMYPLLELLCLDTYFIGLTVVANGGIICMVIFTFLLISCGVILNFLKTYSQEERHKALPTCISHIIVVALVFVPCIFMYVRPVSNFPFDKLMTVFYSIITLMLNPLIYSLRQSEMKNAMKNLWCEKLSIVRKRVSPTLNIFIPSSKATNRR
Summary of the method: as §1

OR4A4P (Homo sapiens) = biological target: T9, OR4A4P (Homo sapiens) (UniProt Q8NGN8)
T9 sequence (whole entry): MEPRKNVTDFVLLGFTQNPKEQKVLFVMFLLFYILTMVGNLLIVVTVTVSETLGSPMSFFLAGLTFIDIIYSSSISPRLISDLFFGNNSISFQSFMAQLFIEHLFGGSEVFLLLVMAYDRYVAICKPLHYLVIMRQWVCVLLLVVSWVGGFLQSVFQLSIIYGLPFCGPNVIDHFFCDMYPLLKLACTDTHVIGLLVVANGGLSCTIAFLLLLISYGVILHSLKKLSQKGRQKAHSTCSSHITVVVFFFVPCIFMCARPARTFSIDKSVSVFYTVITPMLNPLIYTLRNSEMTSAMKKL
Summary of the method: as §1

OR4A5 = tested on: T10, OR4A5
T10 sequence (whole entry): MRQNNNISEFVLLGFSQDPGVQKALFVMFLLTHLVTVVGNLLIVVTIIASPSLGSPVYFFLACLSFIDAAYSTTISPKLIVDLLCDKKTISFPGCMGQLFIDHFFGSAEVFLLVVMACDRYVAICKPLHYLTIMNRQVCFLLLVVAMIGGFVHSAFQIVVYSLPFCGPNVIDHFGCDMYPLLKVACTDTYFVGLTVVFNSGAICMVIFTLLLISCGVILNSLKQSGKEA
Summary of the method: as §1

OR4B1 (Homo sapiens) = biological target: T11, OR4B1 (Homo sapiens) (UniProt Q8NGF8)
T11 sequence (whole entry): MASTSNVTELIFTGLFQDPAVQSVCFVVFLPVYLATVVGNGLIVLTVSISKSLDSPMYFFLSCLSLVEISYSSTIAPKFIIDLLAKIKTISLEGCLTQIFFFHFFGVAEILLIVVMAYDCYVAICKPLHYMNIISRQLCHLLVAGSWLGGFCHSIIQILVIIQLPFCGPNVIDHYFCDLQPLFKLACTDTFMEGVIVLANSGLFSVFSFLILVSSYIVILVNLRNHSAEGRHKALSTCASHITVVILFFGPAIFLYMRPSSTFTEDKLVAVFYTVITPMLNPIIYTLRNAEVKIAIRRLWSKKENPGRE
Summary of the method: as §1

OR4C11 (Homo sapiens) = biological target: T12, OR4C11 (Homo sapiens) (UniProt Q6IEV9)
T12 sequence (whole entry): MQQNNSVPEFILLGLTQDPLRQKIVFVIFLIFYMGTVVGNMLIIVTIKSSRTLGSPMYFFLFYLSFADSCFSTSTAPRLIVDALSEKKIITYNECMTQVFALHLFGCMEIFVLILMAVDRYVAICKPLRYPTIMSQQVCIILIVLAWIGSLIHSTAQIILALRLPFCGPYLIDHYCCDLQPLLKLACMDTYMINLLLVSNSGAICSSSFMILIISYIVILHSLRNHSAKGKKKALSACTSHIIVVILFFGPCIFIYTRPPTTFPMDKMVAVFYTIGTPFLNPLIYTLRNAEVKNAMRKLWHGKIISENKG
Summary of the method: as §1

OR2W3 (Homo sapiens) = biological target: T13, OR2W3 (Homo sapiens) (UniProt Q7Z3T1)
T13 sequence (whole entry): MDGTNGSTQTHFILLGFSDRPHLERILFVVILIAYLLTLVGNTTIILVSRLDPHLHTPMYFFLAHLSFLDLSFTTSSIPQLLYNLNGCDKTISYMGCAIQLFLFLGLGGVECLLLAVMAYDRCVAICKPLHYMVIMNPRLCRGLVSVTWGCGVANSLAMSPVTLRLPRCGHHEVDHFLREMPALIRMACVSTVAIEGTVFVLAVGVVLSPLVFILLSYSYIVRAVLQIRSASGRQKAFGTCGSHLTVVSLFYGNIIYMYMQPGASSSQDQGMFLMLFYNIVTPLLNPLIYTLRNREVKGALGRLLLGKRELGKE
Summary of the method: as §1

OR3A3 = tested on: T14, OR3A3
T14 sequence (whole entry): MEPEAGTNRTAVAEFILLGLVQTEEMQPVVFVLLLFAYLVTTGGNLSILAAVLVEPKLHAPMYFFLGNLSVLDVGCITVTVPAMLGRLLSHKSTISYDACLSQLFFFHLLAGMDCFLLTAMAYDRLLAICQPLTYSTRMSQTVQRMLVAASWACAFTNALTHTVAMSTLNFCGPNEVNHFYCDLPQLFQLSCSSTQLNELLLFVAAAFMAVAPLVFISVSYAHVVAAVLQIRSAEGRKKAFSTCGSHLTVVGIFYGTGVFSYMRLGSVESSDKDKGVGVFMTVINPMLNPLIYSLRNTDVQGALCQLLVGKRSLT
Summary of the method: as §1

OR3A4 = tested on: T15, OR3A4
T15 sequence (whole entry): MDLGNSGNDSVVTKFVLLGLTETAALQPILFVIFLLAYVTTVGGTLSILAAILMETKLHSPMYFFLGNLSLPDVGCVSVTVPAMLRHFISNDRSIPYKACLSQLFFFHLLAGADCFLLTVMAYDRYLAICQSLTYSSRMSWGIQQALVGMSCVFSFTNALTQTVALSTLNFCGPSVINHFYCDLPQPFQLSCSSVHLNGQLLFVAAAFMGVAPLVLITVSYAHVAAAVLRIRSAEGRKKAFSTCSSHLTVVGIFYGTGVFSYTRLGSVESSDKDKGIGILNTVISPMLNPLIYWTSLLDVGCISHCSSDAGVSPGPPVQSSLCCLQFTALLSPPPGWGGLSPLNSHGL
Summary of the method: as §1

OR4A5 (Homo sapiens) = biological target: T16, OR4A5 (Homo sapiens) (UniProt Q8NH83)
T16 sequence (whole entry): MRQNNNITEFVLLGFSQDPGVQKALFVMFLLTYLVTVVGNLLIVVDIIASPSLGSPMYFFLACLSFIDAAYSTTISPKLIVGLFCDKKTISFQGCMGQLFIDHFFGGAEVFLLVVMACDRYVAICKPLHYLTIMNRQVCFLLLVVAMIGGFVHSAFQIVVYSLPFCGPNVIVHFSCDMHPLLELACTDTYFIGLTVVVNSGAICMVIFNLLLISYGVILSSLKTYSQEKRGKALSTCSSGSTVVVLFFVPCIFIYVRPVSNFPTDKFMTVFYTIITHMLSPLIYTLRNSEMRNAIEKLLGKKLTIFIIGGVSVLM
Summary of the method: as §1

Row | SMILES | odorant receptor agonist call (OR2W1) | odorant receptor agonist call (OR2W3) | odorant receptor agonist call (OR2W5P (Homo sapiens)) | odorant receptor agonist call (OR2Y1) | odorant receptor agonist call (OR2Z1 (Homo sapiens)) | odorant receptor agonist call (OR3A1 (Homo sapiens)) | odorant receptor agonist call (OR3A2 (Homo sapiens)) | odorant receptor agonist call (OR4A16 (Homo sapiens)) | odorant receptor agonist call (OR4A4P (Homo sapiens)) | odorant receptor agonist call (OR4A5) | odorant receptor agonist call (OR4B1 (Homo sapiens)) | odorant receptor agonist call (OR4C11 (Homo sapiens)) | odorant receptor agonist call (OR2W3 (Homo sapiens)) | odorant receptor agonist call (OR3A3) | odorant receptor agonist call (OR3A4) | odorant receptor agonist call (OR4A5 (Homo sapiens))
1 | O=C1CCCCC1 | inactive | inactive | inactive | inactive | inactive | inactive | inactive | inactive | inactive | inactive | inactive | inactive |  |  |  | 
2 | C=CCc1ccc(O)c(OC)c1 |  |  |  |  |  |  |  |  |  |  |  |  | inactive |  |  | 
3 | O=CCc1ccccc1 | inactive | inactive | inactive | inactive | inactive | inactive | inactive | inactive | inactive | inactive | inactive | inactive |  | inactive | inactive | active
